These are yes or no findings as the source states them, for the method shown. Binding seen in cells or lysates may run through a third protein.
Biological target: HA-NS5A (hepatitis C virus NS5A protein) (hepatitis C virus (strain not stated)) (UniProt Q9WMX2)
Assay: co-IP; Huh-7.5 cells cotransfected with pCAG-HA-NS5A and each FLAG-DGAT1 plasmid, harvested 48 h after transfection; lysate precipitated with anti-HA pAb on protein A Sepharose beads; HA-NS5A is the bait; blot with anti-DDDDK mAb

By UniProt entry, the sequences of proteins in these tests, tags left out. Residues count along the entry.
FLAG-DGAT1 (aa 1–156) (O75907, residues 1-156): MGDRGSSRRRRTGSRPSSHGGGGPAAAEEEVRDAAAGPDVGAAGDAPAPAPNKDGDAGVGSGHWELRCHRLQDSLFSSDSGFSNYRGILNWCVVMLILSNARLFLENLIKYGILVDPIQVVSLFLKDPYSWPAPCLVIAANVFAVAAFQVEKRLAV
FLAG-DGAT1 (aa 400–488) (O75907, residues 400-488): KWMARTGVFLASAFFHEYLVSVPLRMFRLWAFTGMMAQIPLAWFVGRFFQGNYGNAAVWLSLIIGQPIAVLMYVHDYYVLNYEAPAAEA

FLAG-DGAT1 (aa 1–156) (from UniProt O75907 1-156) (domain or fragment)
binding: no binding

FLAG-DGAT1 (aa 400–488) (from UniProt O75907 400-488) (domain or fragment)
binding: no binding

Source: article PMC11864691
